PubChem BioAssay AID652272 | Drosophila RNAi Screening Center – 2013
Purpose: 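Genes whose knock-down decreases or increases Hedgehog reporter output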 (primary screen). System: Drosophila clone 8 (Cl8) cells. Reagents: long dsRNA against Drosophila genes. Read-out: 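Plate reader light from a firefly reporter under a ptc promoter fragment that responds to Hedgehog, with Renilla light as transfection reference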. Scale: firefly Hh reporter signal: higher = more ptc reporter light; Renilla reference signal: higher = more Renilla control light. Active means: 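Called a hit if the two-replicate mean z-score lies below -2 or above +3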. Meaning of the calls: active = hit: reporter lowered or raised; inactive = not a hit.
The screen tested about 21,000 reagents; below is a random part of those with a known target gene and a result. Over the whole deposit, 503 (2.4%) got an active call. 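Raw plate light values, not normalised; calls rest on replicate z-scores that were not deposited; hits include reporter decreases as well as increases.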 Names joined by + are all predicted targets of the reagent. The record does not give: the amount of reagent, the time to read-out.

target gene,amplicon,"firefly Hh reporter signal, replicate 1","firefly Hh reporter signal, replicate 2","firefly Hh reporter signal, replicate 3","Renilla reference signal, replicate 1","Renilla reference signal, replicate 2",Outcome
CG1632,DRSC17558,5.58e5,1.71e5,,29957,3424,inactive
CG1632,DRSC18110,98610,3.38e5,,2752,11021,inactive
CG13711,DRSC08320,43768,40241,,6002,3188,inactive
CG10038,DRSC14178,1.39e5,1.02e5,,5697,4225,inactive
syd (sunday driver),DRSC10963,1.01e5,76325,,4185,2976,inactive
DAAM (Dishevelled Associated Activator of Morphogenesis),DRSC18479,5.58e5,99240,,3757,3757,inactive
Fak (Focal adhesion kinase),DRSC07426,88685,49350,,1826,3793,inactive
euc (eucalyptus),DRSC14492,6.28e5,1.06e5,,33623,3465,inactive
EMRE (Essential MCU regulator),DRSC06686,1.23e5,64341,,3754,5142,inactive
CG5217,DRSC15740,4.09e5,69884,,23334,1496,inactive
CG10214,DRSC14213,1.22e5,63292,,4551,2360,inactive
mRpL36 (mitochondrial ribosomal protein L36),DRSC10337,28251,73661,,2281,5456,inactive
cal1 (chromosome alignment defect 1),DRSC15725,1.38e5,1.14e5,,5856,4407,inactive
Su(var)3-3 (Suppressor of variegation 3-3),DRSC10250,1.03e5,90731,,3809,3629,inactive
CG30487,DRSC05377,1.31e5,3.23e5,,3485,13063,inactive
Cht9 (Chitinase 9),DRSC04079,95101,44704,,3664,1916,inactive
NimA (Nimrod A),DRSC01353,1.63e5,2.12e5,,3376,8256,inactive
RpS16 (Ribosomal protein S16),DRSC04442,40519,26726,,1341,4002,active
CG12093,DRSC08252,1.70e5,1.12e5,,7131,2854,inactive
CG12637,DRSC17845,60226,2.96e5,,1584,10960,inactive
msn (misshapen),DRSC07990,96304,1.50e5,,2615,5897,inactive
msn (misshapen),DRSC08498,81969,43908,,2579,3152,inactive
CG7384,DRSC03053,60945,1.34e5,,2912,4775,inactive
CR43105 (pseudo),DRSC05547,1.65e5,1.53e5,,3968,9592,inactive
CG2150,DRSC15420,1.22e5,4.69e5,,4216,14978,inactive
CG32447,DRSC11732,1.24e5,1.38e5,,5149,5216,inactive
CG32447,DRSC11805,1.21e5,1.38e5,,4657,4084,inactive
CG2680,DRSC18466,62860,1.47e5,,2151,5914,inactive
CG11755,DRSC14374,87769,1.43e5,,2236,4384,inactive
CG14689,DRSC14912,64130,1.13e5,,1930,3355,inactive
CG3216,DRSC04347,65165,39116,,2035,4492,inactive
CG12507,DRSC19463,69589,1.96e5,,2582,7719,inactive
eIF4E3 (eukaryotic translation initiation factor 4E3),DRSC10952,1.02e5,87441,,5040,3091,inactive
Klp64D (Kinesin-like protein at 64D),DRSC11204,82906,1.35e5,,9078,7993,inactive
Rlip (Ral interacting protein),DRSC16828,5.70e5,1.02e5,,26919,2980,inactive
sala + CG43355,DRSC01188,8.07e5,2.49e5,,41110,10731,inactive
sala + CG43355,DRSC03605,86765,70614,,2512,6704,inactive
Obp57e (Odorant-binding protein 57e),DRSC05891,1.09e5,2.69e5,,3162,10976,inactive
CR40282 (pseudo),DRSC07814,76131,41030,,2646,2948,inactive
Prosbeta5 (Proteasome beta5 subunit),DRSC07517,65158,40308,,2454,4291,active
CG11597,DRSC09847,42775,56834,,1618,2537,inactive
CG4707,DRSC04483,98040,50435,,3500,2048,inactive
Acp1 (Adult cuticle protein 1),DRSC01854,79754,65063,,1594,5609,inactive
CG14401,DRSC02385,1.54e5,82416,,4137,7241,inactive
CG7168,DRSC16208,1.24e5,98208,,4778,4055,inactive
Cp7Fc (Chorion protein c at 7F),DRSC18035,85193,2.08e5,,3459,8215,inactive
Ndc80,DRSC20221,1.08e5,74364,,1832,1474,inactive
CG1637,DRSC18865,5.15e5,1.58e5,,26796,3787,inactive
CG1637,DRSC19748,74784,97186,,1528,2295,inactive
CG1637,DRSC19749,67328,2.22e5,,2029,8147,inactive
CG13038,DRSC09919,1.64e5,,,2056,5104,inactive
CG30156,DRSC04959,1.56e5,2.33e5,,4172,9703,inactive
sut4 (sugar transporter 4),DRSC07703,72204,48688,,2896,2281,inactive
Ing5 (Inhibitor of growth family member 5),DRSC03188,1.21e5,79029,,4169,2304,inactive
Cyp311a1 (Cytochrome P450 311a1),DRSC20239,1.07e5,4.01e5,,3213,14085,inactive
Oseg1 (Outer segment 1),DRSC10776,78339,49979,,3750,1996,inactive
CG7058,DRSC20021,56768,2.16e5,,1396,9623,inactive
CG2604,DRSC12313,1.01e5,1.18e5,,4029,3509,inactive
Ufsp2 (UFM1 specific peptidase 2),DRSC10231,1.17e5,54049,,4448,2360,inactive
CRAT (Carnitine O-Acetyl-Transferase),DRSC12523,70609,89658,,2842,2819,inactive
CG10513,DRSC14248,1.16e5,1.05e5,,1504,2384,inactive
CG15450,DRSC20522,1.18e5,56602,5.08e5,7927,1782,inactive
CG11069,DRSC14289,77591,82368,,3312,3296,inactive
CG6709 + Hez,DRSC10165,23942,64634,64454,5332,3616,inactive
CG6709 + Hez,DRSC10698,71436,54420,83785,3881,5760,inactive
CG8003,DRSC10946,74132,92103,,3369,3397,inactive
Uhg2 + snoRNA:Me18S-G1620 + snoRNA:U14:30Ea,DRSC01100,4.48e5,1.72e5,,25955,9164,inactive
CG8939,DRSC20127,92506,60540,,3113,1861,inactive
Pex19 (Peroxin 19),DRSC02839,1.07e5,53632,,4347,2416,inactive
CG30116,DRSC05935,1.04e5,70421,,4387,2933,inactive
CG30116,DRSC06685,1.20e5,61633,,3302,4579,inactive
Tace,DRSC16340,91217,86960,,1559,2493,inactive
CG11000,DRSC12082,1.97e5,,,4228,,inactive
CG11000,DRSC12158,52195,1.31e5,,1933,3676,inactive

Just “Renilla reference signal, replicate 2”, for 8 of the entries above:
CG7168 [DRSC16208] = 4055
Cp7Fc (Chorion protein c at 7F) [DRSC18035] = 8215
Ndc80 [DRSC20221] = 1474
CG1637 [DRSC18865] = 3787
CG1637 [DRSC19748] = 2295
CG1637 [DRSC19749] = 8147
CG13038 [DRSC09919] = 5104
CG30156 [DRSC04959] = 9703
